Test results from patent US6989393B2, “Ccr5 modulators benzimidazoles or benzotriazoles” (AstraZeneca AB, priority 2000, dated 2006).
Some of these results come from one statement about several compounds together. Values belong to the compound of their own block, whether it stands above or below them.

Protein sequences, listed by entry. Tags and fused reporters are not part of them.
UniProt P51681, whole entry: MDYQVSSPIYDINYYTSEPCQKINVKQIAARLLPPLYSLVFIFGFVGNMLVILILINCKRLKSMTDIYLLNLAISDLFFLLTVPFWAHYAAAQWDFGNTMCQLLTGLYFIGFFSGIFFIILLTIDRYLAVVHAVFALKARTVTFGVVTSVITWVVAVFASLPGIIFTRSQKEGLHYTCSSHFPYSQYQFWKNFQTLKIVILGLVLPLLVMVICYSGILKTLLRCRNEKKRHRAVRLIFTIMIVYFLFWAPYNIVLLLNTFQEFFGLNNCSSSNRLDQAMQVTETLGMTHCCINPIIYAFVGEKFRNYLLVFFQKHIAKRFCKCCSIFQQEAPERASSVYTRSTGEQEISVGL

Molecular target: T1, recombinant human CCR5 receptor (Homo sapiens, UniProt P51681)
T1 construct: expressed in transfected cells; host or cells: Chinese hamster ovary cells (membrane preparation)
Experiment: MIP-1α radioligand binding assay (Method Q)
Conditions: 0.1 nM iodinated MIP-1α; membranes from Chinese hamster ovary cells expressing recombinant human CCR5; scintillation proximity beads; read-out: concentration of compound which displaced 50% of bound iodinated MIP-1α (IC50)

SMILES: C[C@H](CCN1CCC(n2cnc3c(F)cccc32)CC1)c1ccccc1 [Example 5, 4-Fluoro-1-[1-(3R/S-phenylbutyl)-piperidin-4-yl]-benzimidazole]
IC50: < 50 µM

SMILES: c1ccc(C(CCN2CCC(n3nnc4ccccc43)CC2)c2ccccc2)cc1 [Example 15, 1-[1-(3,3-Diphenylpropyl)-piperidin-4-yl]benzotriazole]
IC50: < 50 µM

SMILES: N#CC(CCN1CCC(n2cnc3ccccc32)CC1)(c1ccccc1)c1ccccc1 [Example 19, 1-[1-(3-Cyano-3,3-diphenylpropyl)-piperidin-4-yl]benzimidazole]
IC50: < 50 µM

SMILES: C[C@@H](CCN1CCC(n2cnc3cc(S(C)(=O)=O)ccc32)CC1)c1ccccc1 [Example 22, 5-Methanesulphonyl-1-[1-(3-S-phenylbutyl)-piperidin-4-yl]-benzimidazole]
IC50: < 50 µM

SMILES: CS(=O)(=O)c1ccc2c(c1)ncn2C1CCN(CCC(c2ccccc2)c2ccccc2)CC1 [Example 23, 5-Methanesulphonyl-1-[1-(3,3-diphenylpropyl)-piperidin-4-yl]-benzimidazole]
IC50: < 50 µM

SMILES: N#Cc1ccc2c(c1)ncn2C1CCN(CCC(c2ccccc2)c2ccccc2)CC1 [Example 24, 5-Cyano-1-[1-(3,3-diphenylpropyl)-piperidin-4-yl]-benzimidazole]
IC50: < 50 µM

Other lines, results leading:

IC50: < 50 µM
SMILES: CC(CCN1CCC(n2cnc3ccccc32)CC1)c1ccccc1 (stereo not drawn) [Example 1, 1-[1-(3R/S-Phenylbutyl)-piperidin-4-yl]-benzimidazole]

IC50: < 50 µM
SMILES: c1ccc(C(CCN2CCC(n3cnc4ccccc43)CC2)c2ccccc2)cc1 [Example 2, 1-[1-(3,3-Diphenylpropyl)-piperidin-4-yl]benzimidazole]

IC50: < 50 µM
SMILES: CC(CCN1CCC(C2C=Nc3cc(F)ccc32)CC1)c1ccccc1 (stereo not drawn) [Example 4, 5-Fluoro-1-[1-(3R/S-phenylbutyl)-piperidin-4-yl]benzimidazole]
